# About 310 (0.13%) of roughly 230,000 compounds were called active. Not shown: some 2% with an inconclusive outcome. Calls come from the whole dose curve; as a rule, active = well fitted activation curve with a large enough effect; inconclusive = small, poorly fitted or top-dose-only effect; inactive = no such curve, though single readings can be large or run the other way. Only a part is listed here, and it is no random draw. The source gives no active or inactive call for entries shown without one. More than one record can exist for a structure, and the calls need not agree.
# Test: qHTS Multiplex Assay to Identify Dual Action Probes in a Cell Model of Huntington: Cytoprotection (ATP); note: nearly all actives have a fitted effect of over 45% in size;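 for cytoprotection (ATP increase): toxic huntingtin expression switched on by the ecdysone agonist tebufenozide; % of control where 0% means no effect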
# Conditions: PC12 HTT-Q103 induced, ATP luminescence, 40 h; cytoprotection (ATP increase): at 56.4 µM (top of the series) unless noted
# Procedure, shortened: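 Stable PC12 Q103-GFP cells in serum-supplemented, phenol red-free DMEM; induction by tebufenozide at 100 nM final; compound dose series; cell viability quantified luminescently from ATP.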
# Potency is the fitted concentration of half-maximal effect.
Compound,cytoprotection (ATP increase),Potency
C[C@]12CCC3c4ccc(O)cc4CCC3C1CCC2OC(=O)CCC1CCCC1 (stereo partly drawn),-41.5%,–
CC(=O)NC(CCS(C)(=O)=O)C(=O)Nc1ccc2c(c1)OCO2 (stereo not drawn),306% [at 10 µM],–
Cc1ccc(S(=O)(=O)CC2CSc3nc4ccccc4n32)cc1 (stereo not drawn),–,active: 3.98 µM
CC(C)=CCOc1cc2oc(=O)ccc2cc1O,-97%,–
Cc1cccc([C@H]2[C@@H]3C=CC(C)C[C@@H]3C(=O)N2Cc2ccccc2)c1 (stereo partly drawn),-197%,–
CCOC(=O)[C@H](CCc1ccccc1)N[C@@H](C)C(=O)N1[C@H](C(=O)O)C[C@H]2CCC[C@@H]21,–,active: 3.16 µM
CCN(C(=O)COC(=O)c1ccccc1NC(=O)c1ccco1)C1CCS(=O)(=O)C1 (stereo not drawn),-32.2%,–
Cc1cc(N/N=C/c2ccc(Cl)cc2)nc(NCc2ccccc2)n1,289% [at 1.9 µM],–
O=C(CSc1ncnc2c1nnn2Cc1ccc(F)cc1)NC1CCCC1,–,active: 1.26 µM
NCCCCCc1cnc[nH]1,–,active: 0.794 µM
CC(C)(C)CC(C)(C)c1ccc(OCCOCC[N+](C)(C)Cc2ccccc2)cc1,-95.6%,–
Cc1[nH]n(-c2ccccc2)c(=O)c1N=O,464% [at 10 µM],–
COc1cccc(-c2cncnc2NCCc2c[nH]c3ccc(OC)cc23)c1,–,active: 3.16 µM
C=C(C(C)=O)C(O)c1ccco1 (stereo not drawn),-58%,–
C[C@H]1C(c2cccc(Cl)c2)=NN(c2ccccc2)[C@@H]1CO,-121%,–
CC1COC2=C1C(=O)C(=O)c1c2ccc2c1CCCC2(C)C (stereo not drawn),-40.6%,–
Cc1cccc(C)c1NC(=O)C1(NC(=O)Cn2cccc([N+](=O)[O-])c2=O)CCCCC1,165% [at 10 µM],–
O=C(Nc1ccccc1)N1CCC2(CC1)CCN(C(=O)c1cnccn1)CC2,–,active: 3.55 µM
COC(=O)[C@@]1(Cc2ccccc2-c2ccco2)C=C[C@H](C)[C@@H](c2ccccc2)N1C(=O)C(F)(F)F,–,active: 10 µM
CC1=CCc2c(cc3oc(C)cc(=O)c3c2O)OC1,-53.4%,–
NNC(=O)c1ccncc1,-35.1%,–
CCCCNS(=O)(=O)c1ccc(S(=O)(=O)NCc2ccncc2)cc1,360% [at 1.9 µM],–
O=C(Nc1nccs1)C(c1ccccc1)N1CCCC1 (stereo not drawn),–,active: 1.41 µM
CCN(C(=O)CC(C)C)c1nnc(Cn2nnc3ccccc32)s1,–,active: 0.891 µM

Compound,cytoprotection (ATP increase),Potency
CCOC(=O)c1sc(NC(=O)c2ccc(S(=O)(=O)N3CCCCCC3)cc2)nc1-c1ccccc1,209% [at 10 µM],–
FC(F)(F)c1cc(NC(=S)NC(c2ccccc2)c2ccccc2)cc(C(F)(F)F)c1,-195%,–
COC(=O)C1=C(C(=O)OC)[C@@H]2N(C)c3ccc(OC)cc3[C@@]23C[C@@H](C(=O)OC)N(C(C)=O)C3=N1,44.4% [at 10 µM],–
Cc1ccc(-n2nnc3c(=O)n(CC(=O)OCc4ccccc4)cnc32)cc1,352% [at 10 µM],–
O=C1C2C3C=CC(C3)C2C(=O)N1CCCO (stereo not drawn),309% [at 10 µM],–
CC(=O)c1ccc(NC(=O)Nc2ncn(Cc3cccc(C)c3)n2)cc1,302% [at 10 µM],–
O=C(c1ccccc1)c1ccccc1,-163%,–
CCOC(=O)C1=C(C)N(C)C(=S)NC1c1ccc(Cl)cc1 (stereo not drawn),220% [at 10 µM],–
COc1ccc(C(=O)C(CN2CCOCC2)c2ccccc2)cc1 (stereo not drawn),–,active: 22.4 µM
NCCCS(=O)(=O)O,-33%,–
COc1ccc(/C=C2\CCCC(C(=O)C(F)(F)F)=C2O)cc1OC,36.7%,–
COc1ccccc1Cn1c(=O)c2ccccc2n2c(Sc3ncnc4sccc34)nnc12,–,active: 1.58 µM
COc1cccc([C@@H]2Oc3ccc(OC)cc3C(=O)[C@H]2OC(=O)NC2CCCC2)c1,-48.5%,–
C1CCC(NC(=NC2C3CC4CC(C3)CC2C4)N2CCOCC2)CC1 (stereo not drawn),-55.1%,–
CCCCCSc1nnc(-c2ccccc2NC(C)=O)c(=O)[nH]1,–,active: 2.82 µM
Cc1csc(NC(=O)[C@@H](NC(=O)c2ccccc2)C(C)C)n1,155% [at 10 µM],–
COc1ccc2[nH]c(-c3ccccc3)cc(=O)c2c1,-335% [at 96.6 µM],–
Cc1ccccc1CN1CCN(CC(=O)NCc2ccccc2)C1=O,–,active: 4.47 µM
CC(=O)N1CC[C@@H]2CC(=O)CC[C@@H]21,-39.4% [at 96.6 µM],–
Cc1cccc(N2C(=O)CC(SC(=Nc3ccccc3)Nc3ccccc3)C2=O)c1 (stereo not drawn),106% [at 10 µM],–
CCOC(=O)N1CCC(N2CCCC(CO)(Cc3cccc(OC)c3)C2)CC1 (stereo not drawn),488% [at 10 µM],–
O=C(O)/C=C/C(O)c1ccc(Cl)cc1 (stereo not drawn),–,active: 3.16 µM
O=C(Nc1cccnc1)Nc1ccccc1Cl,–,active: 0.794 µM
Cc1ccccc1CNC(=O)c1ccccc1C(=O)O,280% [at 1.9 µM],–

# Four compounds already listed, ordered by length of the SMILES, largest number first:
Compound,cytoprotection (ATP increase),Potency
CCOC(=O)c1sc(NC(=O)c2ccc(S(=O)(=O)N3CCCCCC3)cc2)nc1-c1ccccc1,209% [at 10 µM],–
CCOC(=O)N1CCC(N2CCCC(CO)(Cc3cccc(OC)c3)C2)CC1 (stereo not drawn),488% [at 10 µM],–
O=C1C2C3C=CC(C3)C2C(=O)N1CCCO (stereo not drawn),309% [at 10 µM],–
O=C(O)/C=C/C(O)c1ccc(Cl)cc1 (stereo not drawn),–,active: 3.16 µM

# Going on with the list:

Compound,cytoprotection (ATP increase),Potency
Cc1cc2c(cc1Cl)C(c1ccccc1C)CC(=O)O2 (stereo not drawn),-31.1%,–
COc1cc(CNC(=O)CCCC/C=C/C(C)C)ccc1O,-54.3%,–
COc1ccc2c(c1)C(=O)[C@@H](OC(=O)N[C@H](C)C1CCCCC1)[C@H](c1ccc(OC)c(Br)c1)O2,-2.69%,–
CC(C)c1ccccc1S(=O)(=O)c1cc(N)c2ncccc2c1[N+](=O)[O-],–,active: 7.94 µM
COCCCNS(=O)(=O)c1ccc2[nH]c(=O)[nH]c2c1,366% [at 10 µM],–
COc1ccc(C2/C=C\CC(NC(=O)OCC3c4ccccc4-c4ccccc43)CC(=O)N2Cc2ccccc2F)cc1 (stereo not drawn),-44.1% [at 40.3 µM],–
O=C1c2ccccc2C(=O)c2c(O)c(O)cc(O)c21,-30.1%,–
CCCN(CCC)S(=O)(=O)c1ccc(C(=O)Nc2nc3c(s2)CCc2ccccc2-3)cc1,200% [at 10 µM],–
O=C(NN1C(=O)c2ccccc2NC1c1ccc([N+](=O)[O-])o1)c1ccc(Br)cc1 (stereo not drawn),–,active: 6.31 µM
C=CCOC(=O)N[C@H](/C(C(=O)OC)=C(\C)NCc1ccccc1)c1cccc(F)c1,32.6%,–
O=C(CN1C(=O)COc2ccccc21)NCCN1CCC(Cc2ccccc2)CC1,216% [at 10 µM],–
Cc1cc(C)nc(NS(=O)(=O)c2ccc(N)cc2)n1,-57.1%,–
CC(C(O)c1ccc(O)cc1)N1CCC(Cc2ccccc2)CC1 (stereo not drawn),–,active: 5.01 µM
Cc1cc2oc(=O)cc(-c3ccccc3)c2c(C)c1-c1ccc(N(C)C)cc1,-72.9%,–
CN([C@@H](Cc1ccc(OS(=O)(=O)c2cccc3cnccc23)cc1)C(=O)N1CCN(c2ccccc2)CC1)S(=O)(=O)c1cccc2cnccc12,-108%,–
Cn1cc(C2=C(c3cn(CCCSC(=N)N)c4ccccc34)C(=O)NC2=O)c2ccccc21,-68%,–
CC1O[C@@H](O[C@@H]2C(O)C[C@H](O[C@@H]3C(O)C[C@@H](OC4CC[C@@]5(C)C6CC[C@]7(C)C(C8=CC(=O)OC8)CC[C@@]7(O)C6CC[C@@H]5C4)OC3C)OC2C)CC(O)[C@H]1O (stereo partly drawn),-32.5%,–
COc1cccc([C@@H]2Oc3ccc(Br)cc3C(=O)[C@H]2OC(=O)NC2CCCC2)c1,58%,–
COc1cccc(-c2cc(C(F)(F)F)nc(NCc3ccco3)n2)c1,336% [at 10 µM],–
COC(=O)/C=C/c1ccc(OC(=O)OC)c(OC(=O)OC)c1,183% [at 10 µM],–
Cc1ccc2cccc(OC(=O)/C=C\c3ccccc3)c2n1,–,active: 3.16 µM
Nc1ccc2oc(-c3ccccc3Cl)cc(=O)c2c1O,-47.3%,–
COc1cccc([C@@H]2Oc3ccc(Br)cc3C(=O)[C@H]2OC(=O)Nc2ccc(OC(F)F)cc2)c1,-20%,–
C=C1C(=O)OC2CC1C(OC(C)=O)CC(C)=CCCC(C)=CCC[C@@]2(C)O (stereo partly drawn),-304%,–

Compound,cytoprotection (ATP increase),Potency
COc1ccc(-c2cc(=O)c3ccccc3[nH]2)cc1,-64.3% [at 96.6 µM],–
COc1ccc2c(c1)c(CC(=O)OCC(=O)O)c(C)n2C(=O)c1ccc(Cl)cc1,-43.3%,–
CCn1c(-c2ccoc2C)n[nH]c1=S,–,active: 5.62 µM
CC(C)(S)[C@H](N)C(=O)O,-39.5%,–
O=C(Nc1nc2ccc(F)cc2s1)c1cccc(S(=O)(=O)N2CCc3ccccc32)c1,219% [at 10 µM],–
COc1cc(OC)c2c(-c3cccc(-c4cccc(N)c4)c3)cc(=O)oc2c1,-209%,–
Cc1ccc(S(=O)(=O)N2C(=O)/C(=C3\SC(=S)NC3=O)c3ccccc32)cc1,193% [at 10 µM],–
O=C(O)CCCCC1SCC2NC(=O)NC21 (stereo not drawn),–,active: 12.6 µM
c1ccc(CN(CCN(Cc2ccccn2)Cc2ccccn2)Cc2ccccn2)nc1,-150%,–
COc1ccc(C(=O)C(CN2CCOCC2)c2ccccc2)cc1F (stereo not drawn),–,active: 3.16 µM
COc1ccc(N2CCN(C(=O)CNS(=O)(=O)c3ccc(C)cc3)CC2)cc1,39.2%,–
Cn1c(-c2nc(-c3ccccc3)cs2)nc2ccccc21,34.8% [at 1.9 µM],–
CCOC(=O)c1ccc(N2CN(CCc3ccccc3)CNC2=S)cc1,236% [at 10 µM],–
O=C1NC(=O)c2cc(Nc3ccc(F)cc3)c(Nc3ccc(F)cc3)cc21,-148%,–
Cc1cccc([C@H]2[C@@H]3C=CC[C@@H](C)[C@@H]3C(=O)N2Cc2ccccc2)c1,-105%,–
C=CCc1ccc(O)c(-c2cc(CC=C)ccc2O)c1,-124%,–
N[C@H](CSC(c1ccccc1)(c1ccccc1)c1ccccc1)C(=O)O,-81.8%,–
COc1ccc(-c2nc(-c3ccccc3)no2)c(OC)c1,–,active: 5.62 µM
O=C(CCCN1CCC(O)(c2ccc(Cl)cc2)CC1)c1ccc(F)cc1,-63.2%,–
COC(=O)c1c(C)c2c(c(C)c1O)OC(=O)c1c(C)c(Cl)c(O)c(Cl)c1O2,-30.8%,–
Nc1c(S(=O)(=O)c2cccs2)c2nc3ccccc3nc2n1CC1CCCO1 (stereo not drawn),28.6% [at 10 µM],–
